This series is described as follows: general procedure: peptide synthesis; 4-(4,6-dimethoxy-1,3,5-triazin-2-yl)-4-methylmorpholinium chloride. The conditions noted are these: conjugation step, trihydrochloride.

On to “26-[[[3-[[(Z)-[1-(2-Amino-5-chloro-4-thiazolyl)-2-[[(6R,7R)-2-carboxy-8-oxo-3-(pyridiniomethyl)-5-thia-1-azabicyclo[4.2.0]oct-2-en-7-yl]amino]-2-oxoethylidene]amino]oxy]propyl]amino]carbonyl]-26-decarboxyvancomycin Trihydrochloride”, for which the conjugation yield is given as 92.2% yield.
